No constants are given. Whether binding was seen depends on the method and setting. In cells and extracts the contact can be indirect. Some entries that bind do so weakly or less than the wild type.
Molecular target: Flag-MAPK14 (p38α) (UniProt Q16539)
Experiment: co-IP; whole cell lysates of HEK293T cells transiently expressing Flag-MAPK14 or HA-GLI1; precipitated with a Flag or HA antibody, SDS-PAGE and immunoblotting of the endogenous partner

Chains of the proteins cited; added tags and fusions are not shown.
UniProt Q16539: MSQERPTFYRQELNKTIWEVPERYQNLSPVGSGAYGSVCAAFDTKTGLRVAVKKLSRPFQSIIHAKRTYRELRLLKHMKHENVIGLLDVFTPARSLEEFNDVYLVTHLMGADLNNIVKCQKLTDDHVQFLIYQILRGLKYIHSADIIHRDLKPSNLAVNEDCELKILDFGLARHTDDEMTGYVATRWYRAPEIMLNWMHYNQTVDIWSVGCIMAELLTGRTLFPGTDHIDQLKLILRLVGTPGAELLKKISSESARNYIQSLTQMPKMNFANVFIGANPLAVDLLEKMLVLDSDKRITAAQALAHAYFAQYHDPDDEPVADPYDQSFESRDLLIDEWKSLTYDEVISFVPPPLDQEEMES
UniProt P08151: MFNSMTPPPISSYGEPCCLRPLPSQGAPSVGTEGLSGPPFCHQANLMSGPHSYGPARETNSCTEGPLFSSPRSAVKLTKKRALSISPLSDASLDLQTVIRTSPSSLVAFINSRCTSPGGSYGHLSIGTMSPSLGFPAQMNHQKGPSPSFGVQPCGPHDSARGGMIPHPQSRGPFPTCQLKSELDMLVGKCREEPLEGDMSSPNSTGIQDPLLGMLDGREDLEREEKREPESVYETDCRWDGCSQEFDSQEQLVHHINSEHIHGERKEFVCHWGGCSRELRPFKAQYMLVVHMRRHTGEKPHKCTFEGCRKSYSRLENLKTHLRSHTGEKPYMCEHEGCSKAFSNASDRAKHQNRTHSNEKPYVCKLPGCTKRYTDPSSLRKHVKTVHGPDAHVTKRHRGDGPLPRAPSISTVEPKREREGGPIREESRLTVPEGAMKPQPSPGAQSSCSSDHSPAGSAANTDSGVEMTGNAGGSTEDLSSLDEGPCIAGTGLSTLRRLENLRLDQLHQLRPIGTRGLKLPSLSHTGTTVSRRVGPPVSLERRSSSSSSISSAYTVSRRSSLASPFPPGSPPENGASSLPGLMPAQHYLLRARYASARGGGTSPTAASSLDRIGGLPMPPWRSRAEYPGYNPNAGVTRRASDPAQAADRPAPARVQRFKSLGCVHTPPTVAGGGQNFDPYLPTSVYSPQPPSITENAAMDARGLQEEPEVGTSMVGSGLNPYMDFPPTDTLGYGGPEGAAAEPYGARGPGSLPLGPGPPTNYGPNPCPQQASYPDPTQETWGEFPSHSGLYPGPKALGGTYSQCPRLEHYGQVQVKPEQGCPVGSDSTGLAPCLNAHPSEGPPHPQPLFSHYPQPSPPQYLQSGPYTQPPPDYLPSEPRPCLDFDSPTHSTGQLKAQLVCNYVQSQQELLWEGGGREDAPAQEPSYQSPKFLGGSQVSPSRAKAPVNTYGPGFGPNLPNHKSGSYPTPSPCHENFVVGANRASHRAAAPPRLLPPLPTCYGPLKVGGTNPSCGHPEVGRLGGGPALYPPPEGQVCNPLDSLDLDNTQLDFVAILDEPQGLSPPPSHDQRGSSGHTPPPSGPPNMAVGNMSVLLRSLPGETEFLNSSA

Substance: endogenous GLI1 (glioma-associated oncogene 1) (from UniProt P08151 1-1106)
- binding: binds
